Measured values reported in article PMC8376909, “Identification of a transcription factor, PunR, that regulates the purine and purine nucleoside transporter punC in E. coli”.

Molecular target: T1, PunR (YdhB), LysR-family regulator (Escherichia coli K-12 (ASKA collection clone)) (UniProt P0ACR2)
T1 sequence (looked up, limits assumed): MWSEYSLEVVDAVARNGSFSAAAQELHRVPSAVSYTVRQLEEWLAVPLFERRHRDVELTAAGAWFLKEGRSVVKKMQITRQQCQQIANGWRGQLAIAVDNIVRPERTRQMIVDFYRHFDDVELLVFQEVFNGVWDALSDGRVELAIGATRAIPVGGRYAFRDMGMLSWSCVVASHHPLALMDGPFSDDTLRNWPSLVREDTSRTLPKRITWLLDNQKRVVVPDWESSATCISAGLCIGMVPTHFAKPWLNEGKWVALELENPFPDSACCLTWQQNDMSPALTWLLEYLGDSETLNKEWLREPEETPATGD
Test: fluorescence polarization
Details: no adenine, PunR 0-60 nM, 10 mM MgSO4; FP: 20 mM Tris-HCl pH 7.5, 0.1 M NaCl, 0.5 mM EDTA, 10 mM MgSO4, 2 mM DTT, 5 ug/ml herring sperm DNA, 10 nM DNA, 30 C 1 h; recombinant protein; protein details: N-terminal His6; label: 5' 6-carboxyfluorescein on printed strand

Question: Does “TGGGGACTGGTTTCAAAAATTTTGCAGGCAGAGGGG (double strand) [PunR-binding site 36 bp upstream of punC]” bind?
Answer: Result: no binding

The exact form of at least one protein or probe is not confirmed. A negative result means that nothing was seen under these conditions. Protein sequences can lack the tags named with them.
